Test results from paper doi:10.1101/2021.03.03.433744.
Results are given in words; binding and its absence hold for the method and conditions named. Binding can be weak; no strength is given. Sequences can lack the tags named with a protein. For part of these data: Binding seen in cells or lysates may run through a third protein.

Assays:
[1] = target: T1, GST-OsCERK1 (rice (Nipponbare)); experiment: pull-down
T1 sequence: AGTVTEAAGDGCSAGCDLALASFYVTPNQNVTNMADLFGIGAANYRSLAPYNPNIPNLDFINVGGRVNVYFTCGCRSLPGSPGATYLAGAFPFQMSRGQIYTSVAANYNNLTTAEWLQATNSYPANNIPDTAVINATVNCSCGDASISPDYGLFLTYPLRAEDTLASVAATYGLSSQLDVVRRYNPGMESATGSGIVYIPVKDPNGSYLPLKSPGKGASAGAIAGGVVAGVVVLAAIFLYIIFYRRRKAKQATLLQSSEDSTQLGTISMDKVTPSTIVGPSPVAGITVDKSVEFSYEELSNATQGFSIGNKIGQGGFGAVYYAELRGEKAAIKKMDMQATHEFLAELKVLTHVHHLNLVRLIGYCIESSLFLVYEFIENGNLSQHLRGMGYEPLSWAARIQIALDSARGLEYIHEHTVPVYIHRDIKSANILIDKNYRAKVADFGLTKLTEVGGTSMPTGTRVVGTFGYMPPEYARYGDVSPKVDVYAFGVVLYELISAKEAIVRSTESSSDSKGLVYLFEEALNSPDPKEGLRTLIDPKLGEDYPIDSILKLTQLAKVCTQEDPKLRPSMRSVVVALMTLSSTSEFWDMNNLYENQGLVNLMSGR

[2] = target: T2, GST-OsCEBiP (rice (Nipponbare)) (UniProt Q8H8C7); experiment: pull-down
T2 sequence: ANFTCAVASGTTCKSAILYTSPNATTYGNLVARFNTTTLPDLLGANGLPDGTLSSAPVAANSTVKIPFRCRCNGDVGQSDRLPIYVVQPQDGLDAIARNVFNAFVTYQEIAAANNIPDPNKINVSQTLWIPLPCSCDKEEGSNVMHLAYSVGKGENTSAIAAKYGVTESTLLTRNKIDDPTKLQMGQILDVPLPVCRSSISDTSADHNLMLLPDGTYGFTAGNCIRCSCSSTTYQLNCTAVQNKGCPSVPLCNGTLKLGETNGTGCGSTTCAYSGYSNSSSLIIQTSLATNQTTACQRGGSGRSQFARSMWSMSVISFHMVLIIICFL

[3] = target: T3, OsCEBiP-3×FLAG (rice (Nipponbare)) (UniProt Q8H8C7); experiment: co-IP
T3 sequence: T2 sequence

[4] = target: T4, OsCERK1-3×FLAG (rice (Nipponbare)); experiment: co-IP
T4 sequence: T1 sequence

Substance | binding [1] | binding [2] | binding [3] | binding [4]
MBP-UvChi1^mcb (mutated at chitin binding sites) (Ustilaginoidea virens) (enzyme) | binds | binds |  | 
MBP-UvChi1 (Ustilaginoidea virens) (enzyme) | binds | binds |  | 
UvChi1 (35S-UvChi1, expressed in Nicotiana benthamiana) (Ustilaginoidea virens) (enzyme) |  |  | binds | binds
